The target of this experiment is OsGA2ox6 R332A fused with N- or C-YFP (BiFC) (rice (Oryza sativa)) (UniProt Q7XP65). The experiment in a line: split reporter; BiFC: N-YFP and C-YFP fusions expressed together in rice T65 mesophyll protoplasts; confocal microscopy.

Results are given in words; binding and its absence hold for the method and conditions named. In cells and extracts the contact can be indirect. Where a sequence is shown, tags or fusion partners need not be part of it.

B1: OsGA2ox6 R332A fused with N- or C-YFP (BiFC) (enzyme, UniProt Q7XP65 1-358)
chain: MPAFADIAIDPPLADSYRALALLRRDRDGGIAPPAVQMVGSGGAVLERDLPMVDLERLTRGGAGERKACAGAMARAASEWGFFQLTNHGVGRELMEEMRREQARLFRLPFETKEKAGLLNGSYRWGNPTATSLRHLSWSEAFHVPLASISGADCDFGDLTSLRGVMQEVAEAMSRVANTVAAALAEELTGRGGGGASAAPWFPAGCDETTCFLRLNRYPACPFAADTFGLVPHTDSDFLTVLCQDQVGGLHLMKDSRWVAVRPRPDALVVNIGDLFQAWSNNRYKSVEHKVVANAKTDRLSVAYFLCPSYDSLVGTCGEPSPYRAFTFGEYAKKVQEDVRTTGKKIGLPNFFKHSSVQ
For the molecule B1, the binding result is “no binding”.

Values taken from publication PMC7195466, “A common allosteric mechanism regulates homeostatic inactivation of auxin and gibberellin” (Nature Communications, 2020).
